According to patent publication US20100143436A1:
These are yes or no findings as the source states them, for the method shown. Some binding calls cover weakened binding; strength is not graded here.

Protein sequences, listed by entry. Tags and fused reporters are not part of them. Lines headed by an entry give the natural chain unless they say otherwise; changes in a name come on top.
UniProt P83949: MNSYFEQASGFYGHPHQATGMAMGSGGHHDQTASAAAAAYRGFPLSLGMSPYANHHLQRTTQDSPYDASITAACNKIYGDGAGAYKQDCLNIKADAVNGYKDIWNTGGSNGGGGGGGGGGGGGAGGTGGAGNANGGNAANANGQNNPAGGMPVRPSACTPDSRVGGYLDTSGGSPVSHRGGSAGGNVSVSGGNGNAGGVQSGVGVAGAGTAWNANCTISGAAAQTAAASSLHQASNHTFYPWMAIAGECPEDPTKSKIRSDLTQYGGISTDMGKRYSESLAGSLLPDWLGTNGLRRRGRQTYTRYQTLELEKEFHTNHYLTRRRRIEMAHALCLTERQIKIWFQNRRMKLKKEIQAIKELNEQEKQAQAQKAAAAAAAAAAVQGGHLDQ

Molecular target: EGFP-Ubx chimera (Drosophila melanogaster) (UniProt P83949)
Assay: co-assembly of two chimeras in one film and fiber, fluorescence imaging (FIGS. 10E and 10F)

binding: binds
Substance: mCherry-Ubx chimera (from UniProt P83949 1-389)
